The test system of this series is T47D cells. Kind of series: Nuclear entry of His-tagged peptides in T47D cells (anti-His immunoblot of Dignam lysates, immunocytochemistry). Type of series: cell-based, human.

Results on one substance are retold here after patent US20220265769A1, “COMPOSITIONS AND METHODS OF TREATMENT FOR BREAST CANCER INVOLVING A NOVEL CAPER?-MLL1 COMPLEX” (Geisinger Health, priority 2019, published 2022).

Take “CPP-E445-V476: synthetic RRM3-derived peptide E445-V476 with Penetratin and His tags (SEQ ID NO: 15; with His tag SEQ ID NO: 14) (RQIKIWFQNRRMKWKKGGEIKDDVIEECNKHGGVIHIYVDKNSAQGNVYVHHHHHH; RRM3-derived synthetic sequence)”: the “subcellular localisation of His-tagged peptide (anti-His immunocytochemistry)” value was “in cytoplasm and nucleus of all cells”.
